Drawing on US20090252703A1 (priority 2006, published 2009), this text covers conjugation yield for 41 substances.

A short description of this series: general procedure: Fmoc solid-phase peptide synthesis; Rink amide resin; HBTU/DIEA in DMF; PyBOP/DIEA for lactam formation. As to conditions: conjugation step, HPLC main peak %.
As for “Ac-WVEH[hArg]LKGLLS[Cit]SGGVV[hArg]K^(20kDa MeO-PEG)NFVPTDVGPFAF-amide”, the conjugation yield came to 63%.

In turn, “Ac-WVTHRLAGLASRSGGVVRK^(20kDa MeO-PEG)NFVPTDVGPFAF-amide” returned a conjugation yield of 68%.

Turning to “Ac-WVTH[hArg]LAGLLS[Cit]SGGVV[hArg]K^(20kDa MeO-PEG)NFVPTDVGP[2-Nal]AF-amide”, the conjugation yield was 70%.

In turn, “Ac-WVTHRLAGLLSRSGGVVR[4Apa]^(20kDa MeO-PEG)NFVPTDVGPFAF-amide” returned a conjugation yield of 78%.

Substance “Ac-WVTHQLAGLLSQSGGVV[hArg]K^(20kDa MeO-PEG)NFVPTDVGPFAF-amide” returned a conjugation yield of 72%.

Take “Ac-WVTH[Cit]LAGLLSRPGGVVRK^(20kDa MeO-PEG)NFVPTDVGPFAFd”: the conjugation yield stood at 64%.

Substance “Ac-WVEH[Cit]LKGLLS[Cit]SGGVVR[hArg]K^(20kDa MeO-PEG)NFVPTDVGPFAF-amide” had a conjugation yield of 65%.

“Ac-WVTHR[NMeLeu]AGLLSR[NMeSer]GGVVRK^(20kDa MeO-PEG)NFVPTDVGPFAF-amide” had a conjugation yield of 66%.

In turn, “Ac-WVTH[Cit]LAGLLS[Cit]SGGVV[hArg]K^(20kDa MeO-PEG)NFVPTDVGPFAF-amide” yielded a conjugation yield of 63%.

Regarding “Ac-[Aib]WVEH[hArg]LKGLLS[Cit]SGGVVRK^(20kDa MeO-PEG)NFVPTDVGPFAF-amide”, the conjugation yield amounted to 70%.

For “Ac-WVTHRLAGLLSRPGGVVRK^(20kDa MeO-PEG)NFVPTDVGPFAF-amide”, the conjugation yield stood at 71%.

Regarding “Ac-WVEHRLKGLLSQSGGVVR[hArg]K^(20kDa MeO-PEG)NFVPTDVGPFAF-amide”, the conjugation yield is given as 61%.

The substance “Ac-WVTH[Cit]LAGLLS[Cit]SGGVV[hArg]K^(20kDa MeO-PEG)NFVPTDVGP[Bip]AF-amide” registered a conjugation yield of 66%.

Substance “Ac-WVTH[hArg]LAGLLS[hArg]SGGVV[hArg]K^(20kDa MeO-PEG)NFVPTDVGPFAF-amide” yielded a conjugation yield of 56%.

“Ac-WVTH[Cit]LAGLLS[Cit]SGGVVRK^(20kDa MeO-PEG)NFVPTDVGPFAF-amide”: the conjugation yield was 68%.

“Ac-WVTH[Cit]LAGLLS[hArg]SGGVVR[hArg]K^(20kDa MeO-PEG)NFVPTDVGPFAF-amide” returned a conjugation yield of 61%.

Substance “Ac-WVEHRLKGLLSRSGGVVRK^(20kDa MeO-PEG)NFVPTDVGPFAF-amide” yielded a conjugation yield of 65%.

As to “Ac-WVTH[Cit]LAGLAS[Cit]SGGVVRK^(20kDa MeO-PEG)NFVPTDVGPFAF-amide”, the conjugation yield is 69%.

The substance “Ac-[1-Nal]VTH[Cit]LAGLLS[Cit]SGGVVRK^(20kDa MeO-PEG)NFVPTDVGPFAF-amide” displayed a conjugation yield of 14%.

Consider “Ac-WVTH[Cit]LAGLLSQSGGVVR[hArg]K^(20kDa MeO-PEG)NFVPTDVGPFAF-amide”, for which the conjugation yield is reported as 63%.

Regarding “Ac-WVEHRLKGLLS[hArg]SGGVVR[hArg]K^(20kDa MeO-PEG)NFVPTDVGPFAF-amide”, the conjugation yield is 48%.

For “Ac-WVTH[hArg]LAGLLS[Cit]SGGVV[hArg]K^(20kDa MeO-PEG)NFVPTDVGPFAF-amide”, the conjugation yield was determined as 60%.

With “Ac-[1-Nal]VEH[hArg]LKGLLS[Cit]SGGVVRK^(20kDa MeO-PEG)NFVPTDVGPFAF-amide”, the conjugation yield was 66%.

“Ac-WVTH[Cit]LAGLLS[Cit]SGGVV[hArg]K^(20kDa MeO-PEG)N[pl-Phe]VPTDVGP[pI-Phe]AF-amide” returned a conjugation yield of 59%.

Turning to “Ac-WVTH[Cit]LAGLLS[Cit]SGGVV[Guf]K^(20kDa MeO-PEG)NFVPTDVGPFAF-amide”, the conjugation yield is listed as 58%.

“Ac-WVEH[hArg]LKGLLS[Cit]SGGVVRK^(20kDa MeO-PEG)NFVPTDVGPFAF-amide” yielded a conjugation yield of 59%.

“Ac-WVTH[Cit]LAGLLS[Cit]SGGVV[hArg]K^(20kDa MeO-PEG)NFVPTDVG[Oic]FAF-amide” came in with a conjugation yield of 58%.

The substance “Ac-WVTH[Cit]LAGLLS[Cit]SGGVV[hArg]K^(20kDa MeO-PEG)NFVPTDVGP[Igl]AF-amide” gave a conjugation yield of 61%.

Regarding “Ac-WVTHRLAGLASRPGGVVRK^(20kDa MeO-PEG)NFVPTDVGPFAF-amide”, the conjugation yield turned out to be 80%.

In the case of “Ac-WVTHRLAGLAS[Cit]SGGVVRK^(20kDa MeO-PEG)NFVPTDVGPFAF-amide”, the conjugation yield is recorded as 71%.

For “Ac-WVTH[Cit]LAGLLS[Cit]SGGVV[hArg]K^(20kDa MeO-PEG)NFVPTDVGP[1-Nal]AF-amide”, the conjugation yield was found to be 66%.

For the substance “Ac-WVTH[hCit]LAGLLS[hCit]SGGVV[hArg]K^(20kDa MeO-PEG)NFVPTDVGPFAF-amide”, the conjugation yield was found to be 63%.

For the substance “Ac-WVTH[Cit]LAGLLPRSGGVVRK^(20kDa MeO-PEG)NFVPTDVGPFAF-amide”, the conjugation yield is on record as 67%.

For “Ac-WVTH[hArg]LAGLLS[hCit]SGGVV[hArg]K^(20kDa MeO-PEG)NFVPTDVGPFAF-amide”, the conjugation yield turned out to be 61%.

The substance “Ac-WVEHRLKGLLS[Cit]SGGVVR[hArg]K^(20kDa MeO-PEG)NFVPTDVGPFAF-amide” displayed a conjugation yield of 66%.

For “Ac-WVTHRLAGLLPRSGGVVRK^(20kDa MeO-PEG)NFVPTDVGPFAF-amide”, the conjugation yield is reported as 55%.

As for “Ac-WVTHRLAGLLSRSGGVVRK^(20kDa MeO-PEG)NFVPTDVGPFAF-amide”, the conjugation yield is reported as 67%.

Take “Ac-WVTH[hCit]LAGLLS[hArg]SGGVVR[hArg]K^(20kDa MeO-PEG)NFVPTDVGPFAF-amide”: the conjugation yield came out at 63%.

Substance “Ac-WVTHRLEGLLKRSGGVVRK^(20kDa MeO-PEG)N FVPTDVGPFAF-amide” had a conjugation yield of 60%.

For the substance “Ac-WVTH[Cit]LAGLASRPGGVVRK^(20kDa MeO-PEG)NFVPTDVGPFAF-amide”, the conjugation yield is 61%.

Turning to “Ac-WVTHRLAGLLS[Cit]SGG VVRK^(20kDa MeO-PEG)NFVPTDVGPFAF-amide”, the conjugation yield was 69%.
